PubChem BioAssay AID504744 | Drosophila RNAi Screening Center – 2011

- Purpose: 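Find genes whose loss alters insulin-driven dAkt phosphorylation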 (primary screen)
- System: Drosophila Kc167 cells
- Reagents: long dsRNA against Drosophila genes, 250 ng dsRNA per well of a 384-well plate
- Time to read-out: 3 days of knock-down, then overnight serum-free starvation before stimulation
- Treatment: bovine insulin at 387 nM for 10 minutes after 12 h without serum
- Detection: 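In-cell antibody fluorescence for phospho-dAkt in each well over DNA-dye signal, with log2 residuals expressed as z-scores adjusted for cell count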
- Rule for the call: 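Under insulin, a gene counts as a hit if the average z-score of two replicates lies above 2.5 or below -2.5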
The screen tested about 23,000 reagents; below is a random part of those that have a named target and a result. In the full data, 98 (0.43%) got an active call. 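Only hit calls are given; the phospho-dAkt signals, z-scores and hit direction were not deposited.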 Names joined by + are all predicted targets of the reagent.

ACXE [DRSC00847] — outcome = inactive
CG33125 [DRSC00145] — outcome = inactive
obe [DRSC15736] — outcome = inactive
CG17568 [DRSC02628] — outcome = inactive
CG14113 [DRSC10116] — outcome = inactive
Cirl [DRSC21942] — outcome = inactive
CG33758 [DRSC05158] — outcome = inactive
ATP6AP2 [DRSC16420] — outcome = inactive
COX6AL2 + Ir75d [DRSC10081] — outcome = inactive
Txl [DRSC11310] — outcome = inactive
Ppa [DRSC04598] — outcome = inactive
PTP-ER [DRSC04636] — outcome = inactive
G9a [DRSC18619] — outcome = inactive
MtnD [DRSC22733] — outcome = inactive
CG13177 [DRSC06303] — outcome = inactive
CG15818 [DRSC02505] — outcome = inactive
CG14861 [DRSC14984] — outcome = inactive
Coq5 [DRSC19849] — outcome = inactive
Coq5 [DRSC21371] — outcome = inactive
Noc2 [DRSC03165] — outcome = inactive
CG34007 [DRSC01790] — outcome = inactive
LysS [DRSC08677] — outcome = inactive
CG10081 [DRSC05962] — outcome = inactive
CG11892 [DRSC14428] — outcome = inactive
WASp [DRSC15032] — outcome = inactive
CG17361 [DRSC10266] — outcome = inactive
side-VII [DRSC14578] — outcome = inactive
mRpL37 [DRSC16062] — outcome = inactive
Eaat2 [DRSC00032] — outcome = inactive
Eaat2 [DRSC00749] — outcome = inactive
Bmcp [DRSC10808] — outcome = inactive
scu [DRSC20369] — outcome = inactive
Ufsp2 [DRSC10231] — outcome = inactive
CG17470 [DRSC02621] — outcome = inactive
Tbc1d22 [DRSC15867] — outcome = inactive
asl [DRSC12319] — outcome = inactive
CG9519 [DRSC20195] — outcome = inactive
CG11828 [DRSC14394] — outcome = inactive
CG11828 [DRSC22580] — outcome = inactive
CG15561 [DRSC15100] — outcome = inactive
CG5902 [DRSC15912] — outcome = inactive
Adar [DRSC17725] — outcome = inactive
CG11929 [DRSC00339] — outcome = inactive
wrapper [DRSC04723] — outcome = inactive
cyc [DRSC11337] — outcome = inactive
CG6000 [DRSC15938] — outcome = inactive
Lar [DRSC01707] — outcome = inactive
Lar [DRSC03361] — outcome = inactive
Ttc30 [DRSC01300] — outcome = inactive
Ttc30 [DRSC02818] — outcome = inactive
CG15366 (retired record) [DRSC18039] — outcome = inactive
BomBc2 [DRSC06502] — outcome = inactive
CG5966 [DRSC18394] — outcome = inactive
Sulf1 [DRSC16874] — outcome = inactive
Hph [DRSC12164] — outcome = inactive
Hph [DRSC12251] — outcome = inactive
AOX1 [DRSC15339] — outcome = inactive

Entries listed so far whose gene name begins with W or w:
WASp [DRSC15032] — outcome = inactive
wrapper [DRSC04723] — outcome = inactive
